Source: PubChem BioAssay AID686943 (Drosophila RNAi Screening Center, 2013)
The deposit covers about 23,000 reagents; below is a random part of those that have a named target and a result. 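Extra replicates exist only for a retested subset of genes; insulin dose and duration not given; both raised and lowered dpERK matter.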 Further read-outs or replicates are left out here. Reagent sequences are not shown. Not stated in the record: the amount of reagent, the time to read-out.

- Assay: 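Fly genes whose loss alters ERK activation after insulin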 (primary screen)
- Cell system: Drosophila S2R+ haemocyte-like cells expressing YFP-tagged ERK (Rolled)
- Reagent: long dsRNA against Drosophila genes
- Challenge: insulin stimulation versus unstimulated cells; dose and duration not given
- Read-out: 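Antibody staining for doubly phosphorylated ERK divided by ERK-YFP signal, as plate z-scores, in insulin-treated and untreated cells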
- Scale: replicate 1, z-score of dpERK with insulin: higher = more active ERK per ERK-YFP after insulin

How did the screen score CG5335 [DRSC06931]?
replicate 1, z-score of dpERK with insulin: 0.36

What is on record for CR42545 [DRSC03709]?
replicate 1, z-score of dpERK with insulin: -0.12

Which result is listed for Gli [DRSC03332]?
replicate 1, z-score of dpERK with insulin: -0.18

For Cep290 [DRSC08359], what does the deposit list?
replicate 1, z-score of dpERK with insulin: 0.93

For Lgr1 [DRSC16675], what was measured?
replicate 1, z-score of dpERK with insulin: 0.46

For beta3GalTII [DRSC07253], what was measured?
replicate 1, z-score of dpERK with insulin: 0.4

With Taf4 [DRSC11297], what does the deposit list?
replicate 1, z-score of dpERK with insulin: 0.3

With CG11170 [DRSC04090], how do the results read?
replicate 1, z-score of dpERK with insulin: 0.19

What is on record for dy [DRSC20325]?
replicate 1, z-score of dpERK with insulin: 0.76

For CG6280 [DRSC06972], what does the deposit list?
replicate 1, z-score of dpERK with insulin: -0.02

How did the screen score CG4476 [DRSC10424]?
replicate 1, z-score of dpERK with insulin: -0.5

What is on record for CG10474 [DRSC05993]?
replicate 1, z-score of dpERK with insulin: 1.49

Look-ups from the list:
Result of Taf4 [DRSC11297] in “replicate 1, z-score of dpERK with insulin”: 0.3
Lgr1 [DRSC16675], replicate 1, z-score of dpERK with insulin: 0.46
